The text below walks through data of US20190382776.

The exact form of at least one protein or probe is not confirmed. Protein sequences can lack the tags named with them.

This data set deals with T1, Cre recombinase (UniProt P06956).
T1 sequence (looked up, limits assumed): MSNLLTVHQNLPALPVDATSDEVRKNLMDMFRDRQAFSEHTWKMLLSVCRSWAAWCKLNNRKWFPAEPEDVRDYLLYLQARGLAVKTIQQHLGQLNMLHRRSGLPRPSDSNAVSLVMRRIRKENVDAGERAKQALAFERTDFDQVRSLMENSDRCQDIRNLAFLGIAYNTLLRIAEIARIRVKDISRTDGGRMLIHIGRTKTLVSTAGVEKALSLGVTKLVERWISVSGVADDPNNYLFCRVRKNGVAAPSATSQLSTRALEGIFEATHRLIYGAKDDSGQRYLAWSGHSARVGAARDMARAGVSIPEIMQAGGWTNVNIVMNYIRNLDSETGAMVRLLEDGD
As to the kind of experiment: enzyme reaction in vitro. As to conditions: in vitro recombination of pLM495 (5 loxPsym sites), 37 C 1 h, NEB buffer; about 28% inversions; about 70% deletions with synIXR-BAC (43 sites); purified recombinant protein; protein details: NEB M0298L / M0298M.

Consider “ATAACTTCGTATAATGTACATTATACGAAGTTAT (double strand) [loxPsym]”, for which the activity on this sequence (% colonies with at least one deletion) was determined as 27.
